The target of test [1] is T1, Mouse CD20 (endogenous, on mouse B cell lines and splenic B cells) (mouse) (UniProt P19437).
T1 sequence: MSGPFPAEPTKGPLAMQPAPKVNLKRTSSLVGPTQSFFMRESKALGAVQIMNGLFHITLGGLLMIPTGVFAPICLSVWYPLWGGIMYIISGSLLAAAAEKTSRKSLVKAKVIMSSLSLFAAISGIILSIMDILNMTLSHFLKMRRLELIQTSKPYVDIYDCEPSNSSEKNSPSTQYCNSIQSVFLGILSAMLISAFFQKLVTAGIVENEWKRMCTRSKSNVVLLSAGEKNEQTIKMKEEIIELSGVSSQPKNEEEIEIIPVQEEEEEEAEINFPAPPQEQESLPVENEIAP
As to the kind of experiment: flow cytometry on cells.

Test [2] deals with T1, Mouse CD20 (endogenous, on mouse B cell lines and splenic B cells) (mouse). As to the kind of experiment: flow cytometry on mouse B cell lines and splenocytes.
In test [3] the target is T2, Mouse CD20 with C-terminal V5 peptide tag, on transfected 300.18 cells (mouse) (UniProt P19437).
T2 sequence: T1 sequence
The experiment in a line: flow cytometry on 300.18-CD20 cells, anti-mouse kappa detection.

Test [4] addresses T1, Mouse CD20 (endogenous, on mouse B cell lines and splenic B cells) (mouse). As to the kind of experiment: flow cytometry on CD19+ splenocytes of wild type C57BL/6 mice, isotype-specific biotin secondary and APC-streptavidin. On the technique in general: A flow cytometer gives signals particle by particle.

Results are given in words; binding and its absence hold for the method and conditions named. Some entries that bind do so weakly or less than the wild type. For some of these results: Tags and fused reporters may be left off the sequences shown.

B1: 18B12 IgG2c isotype switch variant (antibody, V domains shown)
VH: QVQLQQPGAELVRPGTSVKLSCKASGYTFTSYWMHWIKQRPGQGLEWIGVIDPSDNYTKYNQKFKGKATLTVDTSSSTAYMQLSSLTSEDSAVYFCAREGYYGSSPWFAYWGQGTLVTVSS
VL: QIVMSQSPAILSASPGEKVTMTCRARSSVSYIHWYQQKPGSSPKPWIYATSNLASGVPGRFSGSGSGTSYSLTITRVEAEDAATYYCQQWSSKPPTFGGGTKLEIKR
Take B1: the binding entry in test [1] and in test [2] was “binds” each time.

B2: 18B12 IgG2a engineered mouse IgG2a anti-mouse CD20 monoclonal antibody (antibody, V domains shown)
VH: B1 VH
VL: B1 VL
Consider B2, for which the binding entry in test [3] and in test [4] was “binds” in each case.

The values are drawn from patent publication US20070136826A1 (Biogen, published 2007).
